Measurements from the supplement of paper PMC12823440, “Inhibitors supercharge kinase turnover through native proteolytic circuits” (Nature, 2025).
Counter-ions that a name gives are not always drawn. This is one part of the list. Hit calls seldom repeat between salt and free forms of one compound.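 Kinases, fused to nanoluciferase, were expressed in K562 cells; luminescence was measured every 4 h from 2 to 18 h as percent of control (DMSO = 100%, positive control = 0%). A time point is decreased if signal falls significantly (2 sigma). Hits were called by the authors by a rule that is not shown; the count of time points alone does not decide it.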

By UniProt entry, the sequences of proteins in these tests, tags left out. Where a name states a change or a piece, a line headed by the entry shows the natural chain unless it says otherwise.
UniProt P50613: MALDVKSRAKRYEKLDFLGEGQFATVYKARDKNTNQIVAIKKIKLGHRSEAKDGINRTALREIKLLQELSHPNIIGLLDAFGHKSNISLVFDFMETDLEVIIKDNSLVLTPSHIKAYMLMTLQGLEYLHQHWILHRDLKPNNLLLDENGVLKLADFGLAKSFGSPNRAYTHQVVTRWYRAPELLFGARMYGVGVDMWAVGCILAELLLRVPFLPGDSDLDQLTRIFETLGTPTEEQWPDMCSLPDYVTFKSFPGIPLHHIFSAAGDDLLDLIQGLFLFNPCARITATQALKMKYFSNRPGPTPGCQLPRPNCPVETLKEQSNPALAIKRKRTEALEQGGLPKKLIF
UniProt P50750, whole entry: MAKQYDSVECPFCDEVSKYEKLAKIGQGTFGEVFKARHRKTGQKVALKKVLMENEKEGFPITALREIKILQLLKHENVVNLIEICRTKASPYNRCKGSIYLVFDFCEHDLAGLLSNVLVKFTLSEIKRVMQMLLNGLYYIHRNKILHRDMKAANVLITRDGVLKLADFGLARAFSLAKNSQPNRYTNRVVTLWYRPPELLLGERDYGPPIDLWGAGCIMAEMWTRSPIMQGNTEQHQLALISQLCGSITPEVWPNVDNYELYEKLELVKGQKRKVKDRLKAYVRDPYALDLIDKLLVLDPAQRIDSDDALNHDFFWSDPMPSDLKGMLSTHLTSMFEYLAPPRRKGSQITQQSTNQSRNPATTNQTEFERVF
UniProt O96017, whole entry: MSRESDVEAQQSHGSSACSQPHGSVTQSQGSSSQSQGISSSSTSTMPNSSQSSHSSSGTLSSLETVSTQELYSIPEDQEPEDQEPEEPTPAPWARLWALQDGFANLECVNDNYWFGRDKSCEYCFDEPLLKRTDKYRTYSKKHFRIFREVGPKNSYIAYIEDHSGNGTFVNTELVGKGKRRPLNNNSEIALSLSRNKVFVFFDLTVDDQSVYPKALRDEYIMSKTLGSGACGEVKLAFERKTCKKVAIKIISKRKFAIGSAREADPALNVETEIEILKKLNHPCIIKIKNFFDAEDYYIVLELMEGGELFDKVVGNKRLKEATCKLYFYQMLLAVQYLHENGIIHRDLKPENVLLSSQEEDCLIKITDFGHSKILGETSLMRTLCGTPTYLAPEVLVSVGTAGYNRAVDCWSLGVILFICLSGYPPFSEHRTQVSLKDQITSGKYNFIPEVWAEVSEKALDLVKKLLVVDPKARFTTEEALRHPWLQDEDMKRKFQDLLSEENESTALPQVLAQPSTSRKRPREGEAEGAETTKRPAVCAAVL
UniProt P41240: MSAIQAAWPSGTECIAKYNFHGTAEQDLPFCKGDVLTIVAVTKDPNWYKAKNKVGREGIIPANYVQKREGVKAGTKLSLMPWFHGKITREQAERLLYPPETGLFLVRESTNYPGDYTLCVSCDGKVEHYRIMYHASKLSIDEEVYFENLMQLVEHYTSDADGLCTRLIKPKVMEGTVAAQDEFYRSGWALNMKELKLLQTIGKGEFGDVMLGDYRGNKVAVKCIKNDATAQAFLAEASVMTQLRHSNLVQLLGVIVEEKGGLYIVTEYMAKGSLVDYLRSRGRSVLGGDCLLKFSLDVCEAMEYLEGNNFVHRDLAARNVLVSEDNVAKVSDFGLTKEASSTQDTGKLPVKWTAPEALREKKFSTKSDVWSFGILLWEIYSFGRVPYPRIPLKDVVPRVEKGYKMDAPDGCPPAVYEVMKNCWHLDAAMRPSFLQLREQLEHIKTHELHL
UniProt P48729: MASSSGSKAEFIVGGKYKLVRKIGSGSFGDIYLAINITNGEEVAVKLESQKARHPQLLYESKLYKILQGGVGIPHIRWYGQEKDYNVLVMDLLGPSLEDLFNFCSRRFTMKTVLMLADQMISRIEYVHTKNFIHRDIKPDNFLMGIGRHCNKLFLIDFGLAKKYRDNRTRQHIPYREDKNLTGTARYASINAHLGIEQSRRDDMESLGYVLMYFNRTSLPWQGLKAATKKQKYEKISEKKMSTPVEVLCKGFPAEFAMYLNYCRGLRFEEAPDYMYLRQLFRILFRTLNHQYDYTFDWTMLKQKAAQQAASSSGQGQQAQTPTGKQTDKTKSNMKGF
UniProt P48730: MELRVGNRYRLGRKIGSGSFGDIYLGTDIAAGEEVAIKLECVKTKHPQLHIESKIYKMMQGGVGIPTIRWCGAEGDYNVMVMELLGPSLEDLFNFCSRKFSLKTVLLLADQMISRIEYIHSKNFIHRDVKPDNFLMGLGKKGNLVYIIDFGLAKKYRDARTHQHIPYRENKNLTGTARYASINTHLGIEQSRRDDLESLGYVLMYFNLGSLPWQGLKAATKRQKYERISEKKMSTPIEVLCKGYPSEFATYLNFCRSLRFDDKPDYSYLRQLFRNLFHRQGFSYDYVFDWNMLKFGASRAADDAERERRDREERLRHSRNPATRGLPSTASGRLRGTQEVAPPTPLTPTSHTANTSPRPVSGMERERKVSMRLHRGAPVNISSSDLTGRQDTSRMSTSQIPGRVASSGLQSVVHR
UniProt Q9Y463, whole entry, looked up: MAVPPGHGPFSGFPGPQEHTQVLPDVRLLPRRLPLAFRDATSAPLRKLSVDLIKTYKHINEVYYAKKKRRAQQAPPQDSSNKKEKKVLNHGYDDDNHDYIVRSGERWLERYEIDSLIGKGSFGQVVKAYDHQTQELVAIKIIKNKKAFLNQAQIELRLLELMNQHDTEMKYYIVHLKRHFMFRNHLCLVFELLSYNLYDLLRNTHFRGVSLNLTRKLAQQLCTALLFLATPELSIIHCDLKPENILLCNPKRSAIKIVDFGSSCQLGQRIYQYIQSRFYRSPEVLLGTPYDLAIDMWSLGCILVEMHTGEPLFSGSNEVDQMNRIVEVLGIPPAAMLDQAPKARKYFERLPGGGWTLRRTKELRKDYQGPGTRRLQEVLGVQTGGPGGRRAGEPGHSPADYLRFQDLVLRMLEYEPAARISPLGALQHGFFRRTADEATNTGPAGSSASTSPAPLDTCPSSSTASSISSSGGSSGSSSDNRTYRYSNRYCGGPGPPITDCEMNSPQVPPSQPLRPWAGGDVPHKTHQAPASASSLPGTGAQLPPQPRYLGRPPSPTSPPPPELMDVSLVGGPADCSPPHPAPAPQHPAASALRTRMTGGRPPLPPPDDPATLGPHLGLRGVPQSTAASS
UniProt Q92630: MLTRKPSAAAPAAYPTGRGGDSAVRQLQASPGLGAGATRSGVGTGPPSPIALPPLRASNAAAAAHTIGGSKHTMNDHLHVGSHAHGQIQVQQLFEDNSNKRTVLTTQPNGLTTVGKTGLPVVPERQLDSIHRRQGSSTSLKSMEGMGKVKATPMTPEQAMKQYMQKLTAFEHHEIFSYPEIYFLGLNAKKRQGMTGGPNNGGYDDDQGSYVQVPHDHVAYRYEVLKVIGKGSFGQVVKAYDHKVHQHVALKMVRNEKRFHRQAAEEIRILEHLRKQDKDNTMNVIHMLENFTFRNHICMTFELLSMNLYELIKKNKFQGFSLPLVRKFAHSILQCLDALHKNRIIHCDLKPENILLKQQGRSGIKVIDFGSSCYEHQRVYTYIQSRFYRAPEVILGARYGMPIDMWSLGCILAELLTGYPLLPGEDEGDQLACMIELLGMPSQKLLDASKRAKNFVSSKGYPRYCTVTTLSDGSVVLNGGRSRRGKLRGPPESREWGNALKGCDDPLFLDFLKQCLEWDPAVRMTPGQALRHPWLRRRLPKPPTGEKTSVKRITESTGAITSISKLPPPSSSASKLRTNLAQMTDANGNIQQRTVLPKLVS
UniProt P21860, whole entry: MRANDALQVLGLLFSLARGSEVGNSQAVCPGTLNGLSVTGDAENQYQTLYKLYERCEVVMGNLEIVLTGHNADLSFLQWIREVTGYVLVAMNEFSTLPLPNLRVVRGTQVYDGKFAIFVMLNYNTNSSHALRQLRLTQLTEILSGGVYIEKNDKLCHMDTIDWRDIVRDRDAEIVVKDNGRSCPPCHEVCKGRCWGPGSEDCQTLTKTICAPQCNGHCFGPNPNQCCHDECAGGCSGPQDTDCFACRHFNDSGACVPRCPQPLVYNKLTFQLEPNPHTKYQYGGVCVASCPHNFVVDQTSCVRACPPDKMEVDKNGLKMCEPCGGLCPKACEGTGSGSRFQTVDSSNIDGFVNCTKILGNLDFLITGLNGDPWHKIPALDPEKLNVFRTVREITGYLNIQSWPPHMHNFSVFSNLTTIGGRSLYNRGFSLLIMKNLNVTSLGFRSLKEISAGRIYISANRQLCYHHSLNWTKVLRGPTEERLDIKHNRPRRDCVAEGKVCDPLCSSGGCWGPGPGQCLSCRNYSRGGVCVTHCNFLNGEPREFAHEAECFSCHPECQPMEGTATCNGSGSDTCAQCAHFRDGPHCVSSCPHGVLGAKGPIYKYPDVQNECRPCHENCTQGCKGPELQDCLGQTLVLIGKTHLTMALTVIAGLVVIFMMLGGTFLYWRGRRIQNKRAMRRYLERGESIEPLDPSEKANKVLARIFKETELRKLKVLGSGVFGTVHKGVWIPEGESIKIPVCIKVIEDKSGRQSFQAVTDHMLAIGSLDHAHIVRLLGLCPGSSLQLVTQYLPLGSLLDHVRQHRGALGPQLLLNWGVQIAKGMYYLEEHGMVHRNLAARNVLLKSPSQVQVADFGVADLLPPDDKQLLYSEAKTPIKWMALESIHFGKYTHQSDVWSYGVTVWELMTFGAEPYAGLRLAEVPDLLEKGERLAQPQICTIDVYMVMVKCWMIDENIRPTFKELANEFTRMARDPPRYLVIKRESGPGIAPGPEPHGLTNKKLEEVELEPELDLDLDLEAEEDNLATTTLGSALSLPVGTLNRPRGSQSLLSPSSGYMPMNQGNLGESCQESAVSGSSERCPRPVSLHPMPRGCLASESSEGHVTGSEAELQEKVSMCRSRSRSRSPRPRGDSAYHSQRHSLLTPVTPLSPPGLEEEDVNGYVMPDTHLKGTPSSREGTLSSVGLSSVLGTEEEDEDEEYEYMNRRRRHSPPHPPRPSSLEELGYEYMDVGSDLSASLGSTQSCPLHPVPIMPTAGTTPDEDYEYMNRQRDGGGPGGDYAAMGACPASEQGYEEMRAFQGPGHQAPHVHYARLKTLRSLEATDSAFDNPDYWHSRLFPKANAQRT
UniProt Q15303, whole entry R711C: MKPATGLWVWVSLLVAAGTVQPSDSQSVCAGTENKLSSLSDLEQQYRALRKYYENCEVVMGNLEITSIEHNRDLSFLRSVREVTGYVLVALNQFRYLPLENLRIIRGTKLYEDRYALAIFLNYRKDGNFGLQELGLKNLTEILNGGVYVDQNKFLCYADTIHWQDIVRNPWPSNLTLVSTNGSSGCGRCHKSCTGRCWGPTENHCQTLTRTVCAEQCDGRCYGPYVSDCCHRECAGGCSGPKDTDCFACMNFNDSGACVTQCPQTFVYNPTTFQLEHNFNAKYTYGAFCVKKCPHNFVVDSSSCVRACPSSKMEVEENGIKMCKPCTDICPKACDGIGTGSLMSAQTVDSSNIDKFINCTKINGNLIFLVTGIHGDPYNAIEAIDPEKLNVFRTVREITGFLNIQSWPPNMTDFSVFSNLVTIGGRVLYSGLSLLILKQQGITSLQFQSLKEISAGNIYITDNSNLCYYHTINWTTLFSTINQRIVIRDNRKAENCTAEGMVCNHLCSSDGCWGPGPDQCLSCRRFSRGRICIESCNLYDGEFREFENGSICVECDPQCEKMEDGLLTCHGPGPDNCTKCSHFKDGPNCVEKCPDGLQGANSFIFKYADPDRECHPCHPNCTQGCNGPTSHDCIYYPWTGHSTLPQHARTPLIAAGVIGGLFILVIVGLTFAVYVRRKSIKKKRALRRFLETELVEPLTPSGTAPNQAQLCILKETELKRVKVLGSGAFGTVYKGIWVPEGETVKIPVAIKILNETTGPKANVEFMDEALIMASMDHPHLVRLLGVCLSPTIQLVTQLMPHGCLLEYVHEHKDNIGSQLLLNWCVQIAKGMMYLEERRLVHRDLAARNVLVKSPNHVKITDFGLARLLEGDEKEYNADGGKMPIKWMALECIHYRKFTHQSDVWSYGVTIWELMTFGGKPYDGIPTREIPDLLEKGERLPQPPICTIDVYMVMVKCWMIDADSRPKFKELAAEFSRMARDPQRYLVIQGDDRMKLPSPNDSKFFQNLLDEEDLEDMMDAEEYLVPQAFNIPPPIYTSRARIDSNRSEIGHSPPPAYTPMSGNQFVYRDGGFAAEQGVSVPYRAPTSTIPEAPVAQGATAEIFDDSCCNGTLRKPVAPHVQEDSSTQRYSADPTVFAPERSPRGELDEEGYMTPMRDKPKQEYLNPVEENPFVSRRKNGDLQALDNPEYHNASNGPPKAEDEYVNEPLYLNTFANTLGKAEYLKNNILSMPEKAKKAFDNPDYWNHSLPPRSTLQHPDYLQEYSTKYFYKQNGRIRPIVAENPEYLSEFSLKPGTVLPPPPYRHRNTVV

What was measured:
Experiment in all cases: kinase-Nluc reporter destabilization hit call (1 = scored as downregulated) (binary); higher = compound decreases kinase abundance
Conditions in all cases: K562; 2-18 h
CDK7 = CDK7 (UniProt P50613)
CDK9 = CDK9 (UniProt P50750)
CHEK2 = CHEK2 (UniProt O96017)
CSF1R = CSF1R (UniProt P07333)
CSK = CSK (UniProt P41240)
CSNK1A1 = CSNK1A1 (UniProt P48729)
CSNK1D = CSNK1D (UniProt P48730)
DDR1 = DDR1 (UniProt Q08345)
DYRK1B = DYRK1B (UniProt Q9Y463)
DYRK2 = DYRK2 (UniProt Q92630)
EGFR = EGFR (UniProt P00533)
EGFR_G719S = EGFR_G719S (UniProt P00533)
EGFR_G719S_T790M = EGFR_G719S_T790M (UniProt P00533)
EGFR_L718V = EGFR_L718V (UniProt P00533)
EGFR_L858R = EGFR_L858R (UniProt P00533)
EGFR_L861Q = EGFR_L861Q (UniProt P00533)
EGFR_T790M = EGFR_T790M (UniProt P00533)
EPHA2 = EPHA2 (UniProt P29317)
ERBB3 = ERBB3 (UniProt P21860)
[1] = target: ERBB4_R711C (clone: ERBB4_mut) (UniProt Q15303)

Measured: kinase-Nluc reporter destabilization hit call

Cc1ccc2cc(-c3c(C)ccc(C(=O)c4c(-c5ccccc5)n(C)n(-c5ccccc5)c4=O)c3N)ccc2n1 (2.5 µM)
inactive: CDK7 = 0 | CDK9 = 0 | CHEK2 = 0 | CSF1R 0 | CSK 0 | CSNK1A1 = 0 | CSNK1D 0 | DDR1 = 0 | DYRK1B 0 | DYRK2 = 0 | EGFR 0 | EGFR_G719S 0 | EGFR_G719S_T790M 0 | EGFR_L718V 0 | EGFR_L858R 0 | EGFR_L861Q 0 | EGFR_T790M 0 | EPHA2 = 0 | ERBB3 = 0 | [1] 0

NS(=O)(=O)c1ccc(-n2nc(C(F)(F)F)cc2-c2ccc(Cl)cc2)cc1 (10 µM)
inactive: CDK7 = 0 | CDK9 = 0 | CHEK2 = 0 | CSF1R 0 | CSK 0 | CSNK1A1 = 0 | CSNK1D 0 | DDR1 = 0 | DYRK1B 0 | DYRK2 = 0 | EGFR 0 | EGFR_G719S 0 | EGFR_G719S_T790M 0 | EGFR_L718V 0 | EGFR_L858R 0 | EGFR_L861Q 0 | EGFR_T790M 0 | EPHA2 = 0 | ERBB3 = 0 | [1] 0

Cc1ccc(CNc2ncnc3ccc(-c4ccc(CO)o4)cc23)o1 (10 µM)
inactive: CDK7 = 0 | CDK9 = 0 | CHEK2 = 0 | CSF1R 0 | CSK 0 | CSNK1A1 = 0 | CSNK1D 0 | DDR1 = 0 | DYRK1B 0 | DYRK2 = 0 | EGFR 0 | EGFR_G719S 0 | EGFR_G719S_T790M 0 | EGFR_L718V 0 | EGFR_L858R 0 | EGFR_L861Q 0 | EGFR_T790M 0 | EPHA2 = 0 | ERBB3 = 0 | [1] 0

O=C(N/N=C/c1coc2ccccc2c1=O)c1cccnc1 (10 µM)
inactive: CDK7 = 0 | CDK9 = 0 | CHEK2 = 0 | CSF1R 0 | CSK 0 | CSNK1A1 = 0 | CSNK1D 0 | DDR1 = 0 | DYRK1B 0 | DYRK2 = 0 | EGFR 0 | EGFR_G719S 0 | EGFR_G719S_T790M 0 | EGFR_L718V 0 | EGFR_L858R 0 | EGFR_L861Q 0 | EGFR_T790M 0 | EPHA2 = 0 | ERBB3 = 0 | [1] 0

CC(C)(C)c1nc(-c2cccc(NS(=O)(=O)c3c(F)cccc3F)c2F)c(-c2ccnc(N)n2)s1 [Dabrafenib] (2.5 µM)
inactive: CDK7 = 0 | CDK9 = 0 | CHEK2 = 0 | CSF1R 0 | CSK 0 | CSNK1A1 = 0 | CSNK1D 0 | DDR1 = 0 | DYRK1B 0 | DYRK2 = 0 | EGFR 0 | EGFR_G719S 0 | EGFR_G719S_T790M 0 | EGFR_L718V 0 | EGFR_L858R 0 | EGFR_L861Q 0 | EGFR_T790M 0 | EPHA2 = 0 | ERBB3 = 0 | [1] 0

CC#CC(=O)N1CC[C@@H](n2c(=O)n(-c3ccc(Oc4ccccc4)cc3)c3c(N)ncnc32)C1 [Tirabrutinib (hydrochloride)] (10 µM)
inactive: CDK7 = 0 | CDK9 = 0 | CHEK2 = 0 | CSF1R 0 | CSK 0 | CSNK1A1 = 0 | CSNK1D 0 | DDR1 = 0 | DYRK1B 0 | DYRK2 = 0 | EGFR 0 | EGFR_G719S 0 | EGFR_G719S_T790M 0 | EGFR_L718V 0 | EGFR_L858R 0 | EGFR_L861Q 0 | EGFR_T790M 0 | EPHA2 = 0 | ERBB3 = 0 | [1] 0

NC(=O)c1nnc(N[C@@H]2CCCC[C@@H]2N)nc1Nc1cccc2cc[nH]c12 (10 µM)
inactive: CDK7 = 0 | CDK9 = 0 | CHEK2 = 0 | CSF1R 0 | CSK 0 | CSNK1A1 = 0 | CSNK1D 0 | DDR1 = 0 | DYRK1B 0 | DYRK2 = 0 | EGFR 0 | EGFR_G719S 0 | EGFR_G719S_T790M 0 | EGFR_L718V 0 | EGFR_L858R 0 | EGFR_L861Q 0 | EGFR_T790M 0 | EPHA2 = 0 | ERBB3 = 0 | [1] 0

For reference, 2 of the compounds above:
O=C(N/N=C/c1coc2ccccc2c1=O)c1cccnc1 (10 µM)
inactive: CDK7 = 0 | CDK9 = 0 | CHEK2 = 0 | CSF1R 0 | CSK 0 | CSNK1A1 = 0 | CSNK1D 0 | DDR1 = 0 | DYRK1B 0 | DYRK2 = 0 | EGFR 0 | EGFR_G719S 0 | EGFR_G719S_T790M 0 | EGFR_L718V 0 | EGFR_L858R 0 | EGFR_L861Q 0 | EGFR_T790M 0 | EPHA2 = 0 | ERBB3 = 0 | [1] 0

CC(C)(C)c1nc(-c2cccc(NS(=O)(=O)c3c(F)cccc3F)c2F)c(-c2ccnc(N)n2)s1 [Dabrafenib] (2.5 µM)
inactive: CDK7 = 0 | CDK9 = 0 | CHEK2 = 0 | CSF1R 0 | CSK 0 | CSNK1A1 = 0 | CSNK1D 0 | DDR1 = 0 | DYRK1B 0 | DYRK2 = 0 | EGFR 0 | EGFR_G719S 0 | EGFR_G719S_T790M 0 | EGFR_L718V 0 | EGFR_L858R 0 | EGFR_L861Q 0 | EGFR_T790M 0 | EPHA2 = 0 | ERBB3 = 0 | [1] 0

Further compounds follow.

Cn1cnc2c(F)c(Nc3ccc(Br)cc3Cl)c(C(=O)NOCCO)cc21 [Selumetinib] (10 µM)
inactive: CDK7 = 0 | CDK9 = 0 | CHEK2 = 0 | CSF1R 0 | CSK 0 | CSNK1A1 = 0 | CSNK1D 0 | DDR1 = 0 | DYRK1B 0 | DYRK2 = 0 | EGFR 0 | EGFR_G719S 0 | EGFR_G719S_T790M 0 | EGFR_L718V 0 | EGFR_L858R 0 | EGFR_L861Q 0 | EGFR_T790M 0 | EPHA2 = 0 | ERBB3 = 0 | [1] 0

COc1cc(Nc2ncc(F)c(Nc3ccc4c(n3)N(COP(=O)(O)O)C(=O)C(C)(C)O4)n2)cc(OC)c1OC [Fostamatinib (disodium hexahydrate)] (10 µM)
inactive: CDK7 = 0 | CDK9 = 0 | CHEK2 = 0 | CSF1R 0 | CSK 0 | CSNK1A1 = 0 | CSNK1D 0 | DDR1 = 0 | DYRK1B 0 | DYRK2 = 0 | EGFR 0 | EGFR_G719S 0 | EGFR_G719S_T790M 0 | EGFR_L718V 0 | EGFR_L858R 0 | EGFR_L861Q 0 | EGFR_T790M 0 | EPHA2 = 0 | ERBB3 = 0 | [1] 0

Cc1cccc(Oc2cnc(=O)[nH]c2)c1 [Tolimidone] (10 µM)
inactive: CDK7 = 0 | CDK9 = 0 | CHEK2 = 0 | CSF1R 0 | CSK 0 | CSNK1A1 = 0 | CSNK1D 0 | DDR1 = 0 | DYRK1B 0 | DYRK2 = 0 | EGFR 0 | EGFR_G719S 0 | EGFR_G719S_T790M 0 | EGFR_L718V 0 | EGFR_L858R 0 | EGFR_L861Q 0 | EGFR_T790M 0 | EPHA2 = 0 | ERBB3 = 0 | [1] 0

C=CC(=O)Nc1cc(Nc2ncc(Cl)c(-c3c[nH]c4ccccc34)n2)c(OC)cc1N(C)CCN(C)C [Mutant EGFR inhibitor] (2.5 µM)
inactive: CDK7 = 0 | CDK9 = 0 | CHEK2 = 0 | CSF1R 0 | CSK 0 | CSNK1A1 = 0 | CSNK1D 0 | DDR1 = 0 | DYRK1B 0 | DYRK2 = 0 | EGFR 0 | EGFR_G719S 0 | EGFR_G719S_T790M 0 | EGFR_L718V 0 | EGFR_L858R 0 | EGFR_L861Q 0 | EGFR_T790M 0 | EPHA2 = 0 | ERBB3 = 0 | [1] 0

Cc1cc(=O)oc2c(C=O)c(O)ccc12 (10 µM)
inactive: CDK7 = 0 | CDK9 = 0 | CHEK2 = 0 | CSF1R 0 | CSK 0 | CSNK1A1 = 0 | CSNK1D 0 | DDR1 = 0 | DYRK1B 0 | DYRK2 = 0 | EGFR 0 | EGFR_G719S 0 | EGFR_G719S_T790M 0 | EGFR_L718V 0 | EGFR_L858R 0 | EGFR_L861Q 0 | EGFR_T790M 0 | EPHA2 = 0 | ERBB3 = 0 | [1] 0

CS(=O)(=O)Nc1cc(-c2ccc3ncnc(Nc4ccc(F)c(Cl)c4)c3c2)cnc1Cl (2.5 µM)
inactive: CDK7 = 0 | CDK9 = 0 | CHEK2 = 0 | CSF1R 0 | CSK 0 | CSNK1A1 = 0 | CSNK1D 0 | DDR1 = 0 | DYRK1B 0 | DYRK2 = 0 | EGFR 0 | EGFR_G719S 0 | EGFR_G719S_T790M 0 | EGFR_L718V 0 | EGFR_L858R 0 | EGFR_L861Q 0 | EGFR_T790M 0 | EPHA2 = 0 | ERBB3 = 0 | [1] 0

O=c1[nH]c(=O)n([C@@H]2O[C@H](CO)[C@@H](O)[C@@H]2O)cc1/C=C/Br [Sorivudine] (10 µM)
inactive: CDK7 = 0 | CDK9 = 0 | CHEK2 = 0 | CSF1R 0 | CSK 0 | CSNK1A1 = 0 | CSNK1D 0 | DDR1 = 0 | DYRK1B 0 | DYRK2 = 0 | EGFR 0 | EGFR_G719S 0 | EGFR_G719S_T790M 0 | EGFR_L718V 0 | EGFR_L858R 0 | EGFR_L861Q 0 | EGFR_T790M 0 | EPHA2 = 0 | ERBB3 = 0 | [1] 0

Cn1nccc1Nc1nccc(-c2ccn([C@H](CO)c3ccc(Cl)c(F)c3)c(=O)c2)n1 [Ravoxertinib] (10 µM)
inactive: CDK7 = 0 | CDK9 = 0 | CHEK2 = 0 | CSF1R 0 | CSK 0 | CSNK1A1 = 0 | CSNK1D 0 | DDR1 = 0 | DYRK1B 0 | DYRK2 = 0 | EGFR 0 | EGFR_G719S 0 | EGFR_G719S_T790M 0 | EGFR_L718V 0 | EGFR_L858R 0 | EGFR_L861Q 0 | EGFR_T790M 0 | EPHA2 = 0 | ERBB3 = 0 | [1] 0

C[C@H](c1ccnc(Nc2nc3ccc(-c4cc(N(C)C)ncn4)cc3[nH]2)c1)N1CCN(C(=O)CC(F)(F)F)CC1 (2.5 µM)
inactive: CDK7 = 0 | CDK9 = 0 | CHEK2 = 0 | CSF1R 0 | CSK 0 | CSNK1A1 = 0 | CSNK1D 0 | DDR1 = 0 | DYRK1B 0 | DYRK2 = 0 | EGFR 0 | EGFR_G719S 0 | EGFR_G719S_T790M 0 | EGFR_L718V 0 | EGFR_L858R 0 | EGFR_L861Q 0 | EGFR_T790M 0 | EPHA2 = 0 | ERBB3 = 0 | [1] 0

c1cc(-c2c[nH]c3nccc(N4CCC[C@@]5(CCCCN5)C4)c23)ncn1 (10 µM)
inactive: CDK7 = 0 | CDK9 = 0 | CHEK2 = 0 | CSF1R 0 | CSK 0 | CSNK1A1 = 0 | CSNK1D 0 | DDR1 = 0 | DYRK1B 0 | DYRK2 = 0 | EGFR 0 | EGFR_G719S 0 | EGFR_G719S_T790M 0 | EGFR_L718V 0 | EGFR_L858R 0 | EGFR_L861Q 0 | EGFR_T790M 0 | EPHA2 = 0 | ERBB3 = 0 | [1] 0
